Values of other authors, collected in US20140004043A1, “CRYPTOPHANE DERIVATIVES AND METHODS OF USE THEREOF” (Georgetown Univeristy, priority 2010, published 2014).
Read-outs that look alike come from different tables or passages of the source. Marks after values point to notes of the source that are not given here.

Settings: TCE-d2, cited from earlier work

c1cc2c3cc1OCOc1ccc4c(c1)Cc1ccc5cc1Cc1ccc(cc1C4)OCOc1ccc(c(c1)Cc1ccc(cc1C2)OCO5)C3 (racemic) [Cryptophane 1, (±)-cryptophane-1,1,1]
δ, 129Xe chemical shift of caged xenon (Xe@host signal): 31 ppm

COc1cc2c3cc1OCCOc1cc4c(cc1OC)Cc1cc5c(OC)cc1Cc1cc(c(OC)cc1C4)OCCOc1cc(c(cc1OC)C3)Cc1cc(OC)c(cc1C2)OCCO5 [A (or 222), (±)-cryptophane-A]
δ, 129Xe chemical shift of caged xenon (Xe@host signal): 63^c ppm
δ, 129Xe chemical shift of caged xenon (Xe@host signal) (listed as A): 63 ppm
